# Measured values published in the odorant receptor screen of Mainland et al. (2015).
# Where “and” joins values, the source holds several entries; their conditions need not be identical. Identical values can stand only once. This is one part of the list. Single wells; the ratio to wells without odorant was worked out here, and repeats agree poorly.
# Columns and labels:
# Experiment in all cases: odorant receptor activation (CRE luciferase / Renilla) (fold of no-odor wells); higher = more activation
# Conditions in all cases: 100 µM
# OR51A2 clone 1577 = tested on: OR51A2 clone 1577
# [1] = tested on: OR51A4 G45C/L227P/R267G clone 1166
# OR51B2 clone 1551 = tested on: OR51B2 clone 1551
# [2] = tested on: OR51B4 V36I/M147T clone 1552
# OR51B5 clone 1553 = tested on: OR51B5 clone 1553
# OR51B6 clone 1554 = tested on: OR51B6 clone 1554
# OR51D1 clone 1206 = tested on: OR51D1 clone 1206
# OR51E1 S11N clone 1532 = tested on: OR51E1 S11N clone 1532
# OR51E1 clone 1129 = tested on: OR51E1 clone 1129
# OR51E2 clone 1205 = tested on: OR51E2 clone 1205
# OR51F2 clone 1330 = tested on: OR51F2 clone 1330
# OR51G1 clone 1165 = tested on: OR51G1 clone 1165
# OR51G2 clone 1199 = tested on: OR51G2 clone 1199
# OR51H1 clone 1187 = tested on: OR51H1 clone 1187
# OR51I1 clone 1555 = tested on: OR51I1 clone 1555
# OR51I2 clone 1133 = tested on: OR51I2 clone 1133
# OR51J1 R75H clone 1698 = tested on: OR51J1 R75H clone 1698
# OR51L1 I281M clone 1535 = tested on: OR51L1 I281M clone 1535
# [3] = tested on: OR51L1 T196I/A207V clone 1533
# OR51L1 clone 1183 = tested on: OR51L1 clone 1183
Structure (SMILES),odorant receptor activation (OR51A2 clone 1577),odorant receptor activation [1],odorant receptor activation (OR51B2 clone 1551),odorant receptor activation [2],odorant receptor activation (OR51B5 clone 1553),odorant receptor activation (OR51B6 clone 1554),odorant receptor activation (OR51D1 clone 1206),odorant receptor activation (OR51E1 S11N clone 1532),odorant receptor activation (OR51E1 clone 1129),odorant receptor activation (OR51E2 clone 1205),odorant receptor activation (OR51F2 clone 1330),odorant receptor activation (OR51G1 clone 1165),odorant receptor activation (OR51G2 clone 1199),odorant receptor activation (OR51H1 clone 1187),odorant receptor activation (OR51I1 clone 1555),odorant receptor activation (OR51I2 clone 1133),odorant receptor activation (OR51J1 R75H clone 1698),odorant receptor activation (OR51L1 I281M clone 1535),odorant receptor activation [3],odorant receptor activation (OR51L1 clone 1183)
CS [methanethiol],0.627,1.01,0.809,0.613,0.67,0.923,0.819,0.91,1.1,1,0.829,1.03,1.09,0.758,0.932,0.883,0.772,0.869,0.847,1.19
CCC(C)=O [2-butanone],0.737,1.08,0.777,0.679,0.8,0.826,1.2,0.977,1.28,0.633,0.74,0.841,1.09,0.911,0.946,0.989,0.714,1.05,0.88,0.867
CCOc1cc(C=O)ccc1O [ethyl vanillin],0.856,1.2 and 0.978,0.955,0.938,0.853,1.62,1.33,1.11 and 2.04 and 1.14,1.7 and 1.22,1.32 and 1.12,0.63 and 1.06,1.33 and 1.15,1.03 and 1.15,1.5 and 1.16,0.951,1.74 and 0.952,0.865,1.06 and 1.86 and 1.22,1.27 and 2.02 and 1.66,1.35 and 1.14
CCCCOC(C)=O [butyl acetate],0.536,1.06,1.1,1.67,0.505,0.758,1.01,0.972,1.11,1.16,0.784,0.939,0.972,1.04,0.818,1.25,1.08,0.912,0.909,0.911
